# Laboratory results as given in the supplement of paper PMC4604168 (melanoma cell lines).
# The list shows a part of the results. Many values rest on one well or one pass, so single values are uncertain.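 Imaging used 1,536-well plates; nuclei positive for cleaved PARP by antibody were divided by total DNA-stained nuclei to yield the apoptosis fraction. Doses for screening kept most cells viable, and cell lines differ markedly in resting and induced cleaved-PARP levels.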
# Tested on: A375
# Experiment: cleaved PARP positive nuclei fraction relative to DMSO control; melanoma cells; higher = more apoptosis
# Conditions: library dose: low library concentration; 72 h
row,Structure (SMILES),cleaved PARP positive nuclei fraction
1,"Oc1nc(-c2ccc(C(F)(F)F)cc2)nc2c1CSCC2 + O=c1cc(-c2cccc3c2Sc2ccccc2S3)oc(N2CCOCC2)c1 [KU55933] (first compound 2 µM, partner dose 1 µM)",75.3%
2,"COc1ccc(-c2ccc3c(N4CCOCC4)nc(N4C[C@@H](C)O[C@@H](C)C4)nc3n2)cc1CO + O=S(=O)(c1ccccc1)N(CC(F)(F)F)c1ccc(C(O)(C(F)(F)F)C(F)(F)F)cc1 [T0901317] (first compound 0.02 µM, partner dose 1.4 µM)",225%
3,"N#Cc1c(O)c2c(-c3ccc(-c4ccccc4O)cc3)csc2[nH]c1=O + Cn1cc(/C=C2\C(=O)Nc3cccnc32)c2ccccc21 [GW441756] (first compound 2 µM, partner dose 0.4 µM)",74.6%
4,"NCC(=O)Nc1ccc(-n2nc(C(F)(F)F)cc2-c2ccc3c(ccc4ccccc43)c2)cc1 + O=C(O)C(=O)Nc1sc2c(c1C(=O)O)CCNC2 [TCS401] (first compound 1 µM, partner dose 1.66667 µM)",2710%
5,"NCC(=O)Nc1ccc(-n2nc(C(F)(F)F)cc2-c2ccc3c(ccc4ccccc43)c2)cc1 + CCc1ccc(CCOc2ccc(CC3SC(=O)NC3=O)cc2)nc1 [pioglitazone] (first compound 1 µM, partner dose 2 µM)",2040%
6,"O=C(Nc1ccccc1)c1cc([N+](=O)[O-])ccc1Cl + CC(C)CCN1c2nc(Nc3cc(F)c(O)c(F)c3)ncc2N(C)C(=O)C1C [BID1870] (first compound 2 µM, partner dose 0.2 µM)",93.9%
7,"O=C(O)c1ccc(-c2c[nH]c3ncc(-c4ccccc4)cc23)cc1C1CCCC1 + Oc1cc(-c2nc(-c3ccccc3)[nH]c2-c2ccncc2)ccc1Cl [L779450] (first compound 0.16 µM, partner dose 0.2 µM)",415%
8,"CN(C)S(=O)(=O)c1ccc2c(c1)/C(=C/c1cc3c([nH]1)CCCC3)C(=O)N2 + COc1ccc(COc2ccc(Cc3cnc(N)nc3N)cc2OC)cc1 [GW2580] (first compound 0.4 µM, partner dose 1 µM)",43.4%
9,"COc1ccc(COc2ccc(Cc3cnc(N)nc3N)cc2OC)cc1 + c1cc(-c2cnn3cc(-c4ccc(OCCN5CCCCC5)cc4)cnc23)ccn1 [Dorsomorphin] (first compound 1 µM, partner dose 0.4 µM)",37.4%
10,"COc1ccc(-c2ccc3c(N4CCOCC4)nc(N4C[C@@H](C)O[C@@H](C)C4)nc3n2)cc1CO + Oc1cc(-c2nc(-c3ccccc3)[nH]c2-c2ccncc2)ccc1Cl [L779450] (first compound 0.02 µM, partner dose 0.2 µM)",142%
11,"CCN(CC)CCCCNc1ncc2cc(-c3cc(OC)cc(OC)c3)c(NC(=O)NC(C)(C)C)nc2n1 + Cc1cc([N+](=O)[O-])ccc1NS(=O)(=O)c1cc(Cl)ccc1Cl [FH535] (first compound 0.1 µM, partner dose 1 µM)",151%
12,"O=S(=O)(c1ccccc1)N(CC(F)(F)F)c1ccc(C(O)(C(F)(F)F)C(F)(F)F)cc1 + Cc1cc([N+](=O)[O-])ccc1NS(=O)(=O)c1cc(Cl)ccc1Cl [FH535] (first compound 1.4 µM, partner dose 1 µM)",157%
13,"COc1cc2ncnc(Nc3ccc(Oc4ccccc4)cc3)c2cc1OC + O=C(O)C(=O)Nc1sc2c(c1C(=O)O)CCNC2 [TCS401] (first compound 2 µM, partner dose 1.66667 µM)",45.1%
